Source: PubChem BioAssay AID720505 (Drosophila RNAi Screening Center, 2013)

Purpose: 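Fly regulators or components of the CRAC channel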 (primary screen)
Cells: Drosophila S2R+ cells
Knock-down reagent: long dsRNA against Drosophila genes
Challenge: thapsigargin (2 µM) in calcium-free buffer to empty internal stores, then 2 mM calcium added back
Read-out: 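Fluo-4 signal in 384-well plates read on a FLIPR after thapsigargin (2 µM, calcium-free) store depletion and 2 mM calcium add-back; unnormalised mean endpoint per well; screen run twice, selected wells retested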
Direction: calcium signal: higher = more calcium entry after store depletion
Hit rule: 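Knock-downs counted as hits when calcium entry dropped relative to STIM1 positive and Rho1 negative controls present on each plate; roughly 1500 genes called, with reductions of differing size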
Meaning of the calls: active = called as lowering calcium entry; inactive = not called
The screen tested about 20,000 reagents; this is a random part of those that have a named target and a result. In the full data, about 2,100 (10%) are marked active. 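Raw plate signals without normalisation; calls rest on control-based scores that were not deposited; replicate 2 separates called from uncalled poorly.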 Unmarked entries are inactive. Reagents against one gene are numbered here. A plus sign joins genes that one reagent is predicted to hit. Not given: the amount of reagent, the time to read-out.

{"gene": "CG10508", "reagent": 1, "calcium signal, replicate 1": "59.2 (active)", "calcium signal, replicate 2": 75.2}
{"gene": "CG10508", "reagent": 2, "calcium signal, replicate 1": 117, "calcium signal, replicate 2": 114}
{"gene": "Taf10b + Taf10", "reagent": 1, "calcium signal, replicate 1": 202, "calcium signal, replicate 2": 200}
{"gene": "CG13123", "reagent": 1, "calcium signal, replicate 1": 174, "calcium signal, replicate 2": 134}
{"gene": "daed", "reagent": 1, "calcium signal, replicate 1": 83.7, "calcium signal, replicate 2": 148}
{"gene": "l(2)09851", "reagent": 1, "calcium signal, replicate 1": 200, "calcium signal, replicate 2": 142}
{"gene": "CG7381", "reagent": 1, "calcium signal, replicate 1": 97.6, "calcium signal, replicate 2": 163}
{"gene": "CG10969", "reagent": 1, "calcium signal, replicate 1": 52.2, "calcium signal, replicate 2": 81.1}
{"gene": "MYPT-75D", "reagent": 1, "calcium signal, replicate 1": 129, "calcium signal, replicate 2": 120}
{"gene": "HisRS", "reagent": 1, "calcium signal, replicate 1": 92.8, "calcium signal, replicate 2": 94.6}
{"gene": "alpha-Man-Ia", "reagent": 1, "calcium signal, replicate 1": "72.1 (active)", "calcium signal, replicate 2": 124}
{"gene": "alpha-Man-Ia", "reagent": 2, "calcium signal, replicate 1": "70.8 (active)", "calcium signal, replicate 2": 114}
{"gene": "alpha-Man-Ia", "reagent": 3, "calcium signal, replicate 1": "74.8 (active)", "calcium signal, replicate 2": 116}
{"gene": "alpha-Man-Ia", "reagent": 4, "calcium signal, replicate 1": 136, "calcium signal, replicate 2": 173}
{"gene": "fog", "reagent": 1, "calcium signal, replicate 1": 187, "calcium signal, replicate 2": 150}
{"gene": "Rtf1", "reagent": 1, "calcium signal, replicate 1": 131, "calcium signal, replicate 2": 125}
{"gene": "CG18477 + CG31780", "reagent": 1, "calcium signal, replicate 1": 92, "calcium signal, replicate 2": 109}
{"gene": "escl", "reagent": 1, "calcium signal, replicate 1": 122, "calcium signal, replicate 2": 143}
{"gene": "CR10032", "reagent": 1, "calcium signal, replicate 1": 114, "calcium signal, replicate 2": 156}

2 entries already listed, ordered by “calcium signal, replicate 1”, highest first.
{"gene": "escl", "reagent": 1, "calcium signal, replicate 1": 122, "calcium signal, replicate 2": 143}
{"gene": "CR10032", "reagent": 1, "calcium signal, replicate 1": 114, "calcium signal, replicate 2": 156}
